For this assay, the target named is hemagglutinin of H1N1 Avian like Swine (influenza virus H1N1 Avian like Swine). The assay is described as follows: Western blot; virus, MDCK cells.

These are yes or no findings as the source states them, for the method shown. Binding calls can cover weak binding; strength is not graded here.

B1: F211-11H12 (antibody, V domains shown)
VH: DVQLQESGPGLVKPSQSLSLTCSVTGYSITSDYYWNWIRQFPGNKLEWMAYIGYDGTKNYNPSLKNRISITRDTSKNQFFLKLNSVTTDDTATYYCTRDRANWDDYFDYWGQGTTLTVSS
VL: DIVMSQSPSSLAVSVGEKVTMSCKSSQSLLNSRNQKNHLAWYQQKPGQSPKLLIYWASTRESGVPDRFTGDGSGTDFTLTISSVKAEDLAVYYCQQYYTYRTFGGGTKLEIK
On to B1, for which the binding result is reported as “binds”.

B2: F211-10A9 (antibody, V domains shown)
VH: QIQLQQSGPELVKPGAPVKISCKASGYTFTDYYIHWVNQRPGQGLEWIGYIYPGNGHTVYNQKFKVRATLTADNPSSTAYLQLNSLTSEDSGVYFCAYDLFNYWGQGTLVTVSA
VL: DIVMTQSPSSLAMSVGQKVTMSCKSSQSLLNSDTQKNFLAWYQQKPGQSPKILVYFASTKESGVPDRFIGSGSGTDFTLTITSVQAEDLADYFCQQYYSIPLTFGAGTKLELK
In the case of B2, the binding result was “binds”.

The values are drawn from patent US20190352376A1.
